In the supplement of paper PMC8728848:
This is one part of the list.

Assays:
Assay in all cases: glycan array binding signal (z-score within array); higher = stronger binding
Conditions in all cases: glycan notation: IUPAC condensed, linker removed
Gal6S(b1-4)Glc = molecular target: Gal6S(b1-4)Glc
Summary of the method: (§1)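 Glycan array data came from 3228 arrays in the Consortium for Functional Glycomics database, and only arrays with an available protein sequence were kept. Glycan names were put into IUPAC-condensed notation, and columns mapping to the same glycan were averaged. The binding signal is a within-array Z-score, averaged across arrays of one protein sequence run at different concentrations or buffers and across linkers. A negative Z-score can be read as non-binding.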

Gal6S(b1-4)Glc6S = molecular target: Gal6S(b1-4)Glc6S
Summary of the method: as §1

Gal6S(b1-4)GlcNAc = molecular target: Gal6S(b1-4)GlcNAc
Summary of the method: as §1

Gal6S(b1-4)GlcNAc6S = molecular target: Gal6S(b1-4)GlcNAc6S
Summary of the method: as §1

GalNAc(a1-3)Gal = molecular target: GalNAc(a1-3)Gal
Summary of the method: as §1

GalNAc(a1-3)GalNAc = molecular target: GalNAc(a1-3)GalNAc
Summary of the method: as §1

[1] = molecular target: GalNAc(a1-3)GalNAc(b1-3)Gal(a1-4)Gal(b1-4)Glc
Summary of the method: as §1

[2] = molecular target: GalNAc(a1-3)GalNAc(b1-3)Gal(a1-4)Gal(b1-4)GlcNAc
Summary of the method: as §1

GalNAc(b1-3)Gal = molecular target: GalNAc(b1-3)Gal
Summary of the method: as §1

[3] = molecular target: GalNAc(b1-3)Gal(a1-4)Gal(b1-4)GlcNAc
Summary of the method: as §1

[4] = molecular target: GalNAc(b1-3)Gal(a1-4)Gal(b1-4)GlcNAc(b1-3)Gal(b1-4)Glc
Summary of the method: as §1

[5] = molecular target: GalNAc(b1-3)Gal(a1-6)Gal(b1-4)Glc
Summary of the method: as §1

GalNAc(b1-3)GalNAc = molecular target: GalNAc(b1-3)GalNAc
Summary of the method: as §1

GalNAc(b1-3)GlcNAc = molecular target: GalNAc(b1-3)GlcNAc
Summary of the method: as §1

GalNAc(b1-4)Gal(b1-4)Glc = molecular target: GalNAc(b1-4)Gal(b1-4)Glc
Summary of the method: as §1

GalNAc(b1-4)GlcNAc = molecular target: GalNAc(b1-4)GlcNAc
Summary of the method: as §1

[6] = molecular target: GalNAc(b1-4)GlcNAc(b1-2)Man
Summary of the method: as §1

[7] = molecular target: GalNAc(b1-4)GlcNAc(b1-2)Man(a1-3)[GalNAc(b1-4)GlcNAc(b1-2)Man(a1-6)]Man(b1-4)GlcNAc(b1-4)GlcNAc
Summary of the method: as §1

[8] = molecular target: GalNAc(b1-4)GlcNAc(b1-3)GalNAc(b1-4)GlcNAc
Summary of the method: as §1

GalNAc(b1-4)GlcNAc6S = molecular target: GalNAc(b1-4)GlcNAc6S
Summary of the method: as §1

GalNAc(b1-6)GalNAc = molecular target: GalNAc(b1-6)GalNAc
Summary of the method: as §1

GalNAc3S(b1-4)GlcNAc = molecular target: GalNAc3S(b1-4)GlcNAc
Summary of the method: as §1

GalNAc3S(b1-4)GlcNAc3S = molecular target: GalNAc3S(b1-4)GlcNAc3S
Summary of the method: as §1

[9] = molecular target: GalNAc3S(b1-4)[Fuc(a1-3)]GlcNAc
Summary of the method: as §1

GalNAc4S6S(b1-4)GlcNAc = molecular target: GalNAc4S6S(b1-4)GlcNAc
Summary of the method: as §1

GalNAc6S(b1-4)GlcNAc = molecular target: GalNAc6S(b1-4)GlcNAc
Summary of the method: as §1

Glc(a1-4)Glc = molecular target: Glc(a1-4)Glc
Summary of the method: as §1

[10] = molecular target: Glc(a1-4)Glc(a1-4)Glc(a1-4)Glc
Summary of the method: as §1

Glc(a1-6)Glc(a1-6)Glc = molecular target: Glc(a1-6)Glc(a1-6)Glc
Summary of the method: as §1

[11] = molecular target: Glc(a1-6)Glc(a1-6)Glc(a1-6)Glc
Summary of the method: as §1

Glc(b1-4)Glc = molecular target: Glc(b1-4)Glc
Summary of the method: as §1

Glc(b1-6)Glc = molecular target: Glc(b1-6)Glc
Summary of the method: as §1

GlcA(b1-3)Gal = molecular target: GlcA(b1-3)Gal
Summary of the method: as §1

GlcA(b1-3)GlcNAc = molecular target: GlcA(b1-3)GlcNAc
Summary of the method: as §1

GlcA(b1-6)Gal = molecular target: GlcA(b1-6)Gal
Summary of the method: as §1

[12] = molecular target: GlcA3S(b1-3)Gal(b1-4)GlcNAc(b1-2)Man
Summary of the method: as §1

[13] = molecular target: GlcA3S(b1-3)Gal(b1-4)GlcNAc(b1-3)Gal(b1-4)Glc
Summary of the method: as §1

[14] = molecular target: GlcNAc(a1-3)Gal(b1-4)GlcNAc
Summary of the method: as §1

[15] = molecular target: GlcNAc(a1-4)Gal(b1-3)GlcNAc
Summary of the method: as §1

[16] = molecular target: GlcNAc(a1-4)Gal(b1-4)GalNAc
Summary of the method: as §1

[17] = molecular target: GlcNAc(a1-4)Gal(b1-4)GlcNAc
Summary of the method: as §1

[18] = molecular target: GlcNAc(a1-4)Gal(b1-4)GlcNAc(b1-3)Gal(b1-4)Glc
Summary of the method: as §1

[19] = molecular target: GlcNAc(a1-4)Gal(b1-4)GlcNAc(b1-3)Gal(b1-4)GlcNAc
Summary of the method: as §1

[20] = molecular target: GlcNAc(a1-4)Gal(b1-4)GlcNAc(b1-3)Gal(b1-4)GlcNAc(b1-3)Gal(b1-4)GlcNAc
Summary of the method: as §1

[21] = molecular target: GlcNAc(a1-4)Gal(b1-4)GlcNAc(b1-3)Gal(b1-4)[Fuc(a1-3)]GlcNAc(b1-3)Gal(b1-4)[Fuc(a1-3)]GlcNAc
Summary of the method: as §1

B1: CBP21 (Serratia marcescens), O83009 (protein)
chain: MNKTSRTLLSLGLLSAAMFGVSQQANAHGYVESPASRAYQCKLQLNTQCGSVQYEPQSVEGLKGFPQAGPADGHIASADKSTFFELDQQTPTRWNKLNLKTGPNSFTWKLTARHSTTSWRYFITKPNWDASQPLTRASFDLTPFCQFNDGGAIPAAQVTHQCNIPADRSGSHVILAVWDIADTANAFYQAIDVNLSK
glycan array binding signal (z-score) (Gal6S(b1-4)Glc): -0.3 | glycan array binding signal (z-score) (Gal6S(b1-4)Glc6S): -0.747 | glycan array binding signal (z-score) (Gal6S(b1-4)GlcNAc): -1.16 | glycan array binding signal (z-score) (Gal6S(b1-4)GlcNAc6S): 0.369 | glycan array binding signal (z-score) (GalNAc(a1-3)Gal): 0.687 | glycan array binding signal (z-score) (GalNAc(a1-3)GalNAc): -0.263 | glycan array binding signal (z-score) [1]: -1.73 | glycan array binding signal (z-score) [2]: 1.85 | glycan array binding signal (z-score) (GalNAc(b1-3)Gal): 1.39 | glycan array binding signal (z-score) [3]: -0.307 | glycan array binding signal (z-score) [4]: -0.455 | glycan array binding signal (z-score) [5]: 0.058 | glycan array binding signal (z-score) (GalNAc(b1-3)GalNAc): -0.453 | glycan array binding signal (z-score) (GalNAc(b1-3)GlcNAc): -0.162 | glycan array binding signal (z-score) (GalNAc(b1-4)Gal(b1-4)Glc): 1.03 | glycan array binding signal (z-score) (GalNAc(b1-4)GlcNAc): 0.482 | glycan array binding signal (z-score) [6]: 0.23 | glycan array binding signal (z-score) [7]: -0.07 | glycan array binding signal (z-score) [8]: 0.054 | glycan array binding signal (z-score) (GalNAc(b1-4)GlcNAc6S): 0.16 | glycan array binding signal (z-score) (GalNAc(b1-6)GalNAc): -1.14 | glycan array binding signal (z-score) (GalNAc3S(b1-4)GlcNAc): -0.701 | glycan array binding signal (z-score) (GalNAc3S(b1-4)GlcNAc3S): 0.435 | glycan array binding signal (z-score) [9]: 0.277 | glycan array binding signal (z-score) (GalNAc4S6S(b1-4)GlcNAc): 0.327 | glycan array binding signal (z-score) (GalNAc6S(b1-4)GlcNAc): -0.003 | glycan array binding signal (z-score) (Glc(a1-4)Glc): -0.381 | glycan array binding signal (z-score) [10]: 0.888 | glycan array binding signal (z-score) (Glc(a1-6)Glc(a1-6)Glc): -0.542 | glycan array binding signal (z-score) [11]: -0.721 | glycan array binding signal (z-score) (Glc(b1-4)Glc): -0.839 | glycan array binding signal (z-score) (Glc(b1-6)Glc): -1.2 | glycan array binding signal (z-score) (GlcA(b1-3)Gal): -1.25 | glycan array binding signal (z-score) (GlcA(b1-3)GlcNAc): 1.4 | glycan array binding signal (z-score) (GlcA(b1-6)Gal): 0.57 | glycan array binding signal (z-score) [12]: -1.64 | glycan array binding signal (z-score) [13]: 2.43 | glycan array binding signal (z-score) [14]: -0.772 | glycan array binding signal (z-score) [15]: 0.503 | glycan array binding signal (z-score) [16]: -0.126 | glycan array binding signal (z-score) [17]: -2.04 | glycan array binding signal (z-score) [18]: 0.067 | glycan array binding signal (z-score) [19]: -0.305 | glycan array binding signal (z-score) [20]: -1.52 | glycan array binding signal (z-score) [21]: -1.08
